According to ChEMBL document CHEMBL1157379, “Transcriptional response of Candida parapsilosis following exposure to farnesol” (2007):
The source gives many values for each of these; only a part stands here.

Columns and labels:
Format in all cases: functional
Candida parapsilosis [1] = test: Increase in CGD gene ortholog accession number orf19.5015 expression in Candida parapsilosis CLIB214 at 50 uM after 2 hrs by microarray based transcriptional profiling relative to control
Candida parapsilosis [2] = test: Decrease in GenBank accession number XP_451524. 1 expression in Candida parapsilosis CLIB214 at 50 uM after 2 hrs by microarray based transcriptional profiling relative to control
Candida parapsilosis [3] = test: Increase in HTS1 gene expression in Candida parapsilosis CLIB214 at 50 uM after 2 hrs by microarray based transcriptional profiling relative to control
Candida parapsilosis [4] = test: Increase in GenBank accession number NP_943640.1 expression in Candida parapsilosis CLIB214 at 50 uM after 2 hrs by microarray based transcriptional profiling relative to control
Candida parapsilosis [5] = test: Increase in CGD gene ortholog accession number orf19.5533 expression in Candida parapsilosis CLIB214 at 50 uM after 2 hrs by microarray based transcriptional profiling relative to control
Candida parapsilosis [6] = test: Increase in CGD gene ortholog accession number orf19.6730 expression in Candida parapsilosis CLIB214 at 50 uM after 2 hrs by microarray based transcriptional profiling relative to control
Candida parapsilosis [7] = test: Increase in CGD gene ortholog accession number orf19.2982 expression in Candida parapsilosis CLIB214 at 50 uM after 2 hrs by microarray based transcriptional profiling relative to control
Candida parapsilosis [8] = test: Decrease in CGD gene ortholog accession number orf19.731 expression in Candida parapsilosis CLIB214 at 50 uM after 2 hrs by microarray based transcriptional profiling relative to control
Candida parapsilosis [9] = test: Decrease in CGD gene ortholog accession number orf19.5735 expression in Candida parapsilosis CLIB214 at 50 uM after 2 hrs by microarray based transcriptional profiling relative to control
Candida parapsilosis [10] = test: Decrease in CGD gene ortholog accession number orf19.4231 expression in Candida parapsilosis CLIB214 at 50 uM after 2 hrs by microarray based transcriptional profiling relative to control
Candida parapsilosis [11] = test: Decrease in CGD gene ortholog accession number orf19.7010 expression in Candida parapsilosis CLIB214 at 50 uM after 2 hrs by microarray based transcriptional profiling relative to control
Candida parapsilosis [12] = test: Decrease in MSH6 gene expression in Candida parapsilosis CLIB214 at 50 uM after 2 hrs by microarray based transcriptional profiling relative to control
Candida parapsilosis [13] = test: Decrease in CGD gene ortholog accession number orf19.6071 expression in Candida parapsilosis CLIB214 at 50 uM after 2 hrs by microarray based transcriptional profiling relative to control
Candida parapsilosis [14] = test: Decrease in CGD gene ortholog accession number orf19.5307 expression in Candida parapsilosis CLIB214 at 50 uM after 2 hrs by microarray based transcriptional profiling relative to control
Candida parapsilosis [15] = test: Increase in CGD gene ortholog accession number orf19.1755 expression in Candida parapsilosis CLIB214 at 50 uM after 2 hrs by microarray based transcriptional profiling relative to control
Candida parapsilosis [16] = test: Decrease in CGD gene ortholog accession number orf19.2455 expression in Candida parapsilosis CLIB214 at 50 uM after 2 hrs by microarray based transcriptional profiling relative to control
Candida parapsilosis [17] = test: Increase in CGD gene ortholog accession number orf19.5602 expression in Candida parapsilosis CLIB214 at 50 uM after 2 hrs by microarray based transcriptional profiling relative to control
Candida parapsilosis [18] = test: Increase in CGD gene ortholog accession number orf19.2575 expression in Candida parapsilosis CLIB214 at 50 uM after 2 hrs by microarray based transcriptional profiling relative to control
Candida parapsilosis [19] = test: Increase in CGD gene ortholog accession number orf19.5627 expression in Candida parapsilosis CLIB214 at 50 uM after 2 hrs by microarray based transcriptional profiling relative to control
Candida parapsilosis [20] = test: Decrease in CGD gene ortholog accession number orf19.3063 expression in Candida parapsilosis CLIB214 at 50 uM after 2 hrs by microarray based transcriptional profiling relative to control
Candida parapsilosis [21] = test: Increase in CGD gene ortholog accession number orf19.1814 expression in Candida parapsilosis CLIB214 at 50 uM after 2 hrs by microarray based transcriptional profiling relative to control
Candida parapsilosis [22] = test: Increase in CDC42 gene expression in Candida parapsilosis CLIB214 at 50 uM after 2 hrs by microarray based transcriptional profiling relative to control
Candida parapsilosis [23] = test: Decrease in RPN3 gene expression in Candida parapsilosis CLIB214 at 50 uM after 2 hrs by microarray based transcriptional profiling relative to control
Candida parapsilosis [24] = test: Decrease in KIS2 gene expression in Candida parapsilosis CLIB214 at 50 uM after 2 hrs by microarray based transcriptional profiling relative to control
Candida parapsilosis [25] = test: Increase in CGD gene ortholog accession number orf19.2070 expression in Candida parapsilosis CLIB214 at 50 uM after 2 hrs by microarray based transcriptional profiling relative to control
Candida parapsilosis [26] = test: Increase in CGD gene ortholog accession number orf19.6407 expression in Candida parapsilosis CLIB214 at 50 uM after 2 hrs by microarray based transcriptional profiling relative to control
Candida parapsilosis [27] = test: Increase in CGD gene ortholog accession number orf19.1019 expression in Candida parapsilosis CLIB214 at 50 uM after 2 hrs by microarray based transcriptional profiling relative to control
Candida parapsilosis [28] = test: Decrease in CGD gene ortholog accession number orf19.5920 expression in Candida parapsilosis CLIB214 at 50 uM after 2 hrs by microarray based transcriptional profiling relative to control
Candida parapsilosis [29] = test: Decrease in CGD gene ortholog accession number orf19.3573 expression in Candida parapsilosis CLIB214 at 50 uM after 2 hrs by microarray based transcriptional profiling relative to control
Candida parapsilosis [30] = test: Decrease in CGD gene ortholog accession number orf19.6186 expression in Candida parapsilosis CLIB214 at 50 uM after 2 hrs by microarray based transcriptional profiling relative to control
Candida parapsilosis [31] = test: Decrease in CGD gene ortholog accession number orf19.6294 expression in Candida parapsilosis CLIB214 at 50 uM after 2 hrs by microarray based transcriptional profiling relative to control
Candida parapsilosis [32] = test: Decrease in ZCF30 gene expression in Candida parapsilosis CLIB214 at 50 uM after 2 hrs by microarray based transcriptional profiling relative to control
Candida parapsilosis [33] = test: Increase in ILV5 gene expression in Candida parapsilosis CLIB214 at 50 uM after 2 hrs by microarray based transcriptional profiling relative to control
Candida parapsilosis [34] = test: Increase in MCR1 gene expression in Candida parapsilosis CLIB214 at 50 uM after 2 hrs by microarray based transcriptional profiling relative to control
Candida parapsilosis [35] = test: Decrease in CGD gene ortholog accession number orf19.728 expression in Candida parapsilosis CLIB214 at 50 uM after 2 hrs by microarray based transcriptional profiling relative to control
Candida parapsilosis [36] = test: Increase in NCP1 gene expression in Candida parapsilosis CLIB214 at 50 uM after 2 hrs by microarray based transcriptional profiling relative to control

How did the “fold change (FC)” value (Candida parapsilosis [1]) turn out when `CC(C)=CCC/C(C)=C/CC/C(C)=C/CO` [FARNESOL] was run?
Its value is 2.2.

What about the “fold change (FC)” value (Candida parapsilosis [2]) of the same compound?
The value was 2.08.

What about the “fold change (FC)” value (Candida parapsilosis [3]) of the same compound?
Its value is 2.19.

What about the “fold change (FC)” value (Candida parapsilosis [4]) of the same compound?
The value was 2.17.

What about the “fold change (FC)” value (Candida parapsilosis [5]) of the same compound?
Its value is 2.13.

And the “fold change (FC)” value (Candida parapsilosis [6])?
Its value is 2.12.

What about the “fold change (FC)” value (Candida parapsilosis [7]) of the same compound?
Its value is 1.59.

And the “fold change (FC)” value (Candida parapsilosis [8])?
Its value is 2.1.

What about the “fold change (FC)” value (Candida parapsilosis [9]) of the same compound?
The value was 1.56.

And the “fold change (FC)” value (Candida parapsilosis [10])?
Its value is 1.96.

What about the “fold change (FC)” value (Candida parapsilosis [11]) of the same compound?
The value was 2.

What about the “fold change (FC)” value (Candida parapsilosis [12]) of the same compound?
The value was 2.01.

And the “fold change (FC)” value (Candida parapsilosis [13])?
The value was 2.17.

And the “fold change (FC)” value (Candida parapsilosis [14])?
Its value is 2.24.

And the “fold change (FC)” value (Candida parapsilosis [15])?
The value was 1.76.

And the “fold change (FC)” value (Candida parapsilosis [16])?
Its value is 2.05.

What about the “fold change (FC)” value (Candida parapsilosis [17]) of the same compound?
Its value is 1.74.

And the “fold change (FC)” value (Candida parapsilosis [18])?
Its value is 1.56.

And the “fold change (FC)” value (Candida parapsilosis [19])?
The value was 1.92.

What about the “fold change (FC)” value (Candida parapsilosis [20]) of the same compound?
Its value is 1.66.

What about the “fold change (FC)” value (Candida parapsilosis [21]) of the same compound?
Its value is 1.86.

And the “fold change (FC)” value (Candida parapsilosis [22])?
Its value is 1.82.

And the “fold change (FC)” value (Candida parapsilosis [23])?
The value was 1.61.

And the “fold change (FC)” value (Candida parapsilosis [24])?
The value was 1.69.

And the “fold change (FC)” value (Candida parapsilosis [25])?
The value was 1.77.

What about the “fold change (FC)” value (Candida parapsilosis [26]) of the same compound?
The value was 1.66.

And the “fold change (FC)” value (Candida parapsilosis [27])?
Its value is 1.62.

And the “fold change (FC)” value (Candida parapsilosis [28])?
Its value is 1.51.

And the “fold change (FC)” value (Candida parapsilosis [29])?
The value was 1.52.

And the “fold change (FC)” value (Candida parapsilosis [30])?
The value was 1.52.

What about the “fold change (FC)” value (Candida parapsilosis [31]) of the same compound?
Its value is 2.52.

What about the “fold change (FC)” value (Candida parapsilosis [32]) of the same compound?
The value was 1.78.

And the “fold change (FC)” value (Candida parapsilosis [33])?
The value was 2.61.

What about the “fold change (FC)” value (Candida parapsilosis [34]) of the same compound?
The value was 2.55.

What about the “fold change (FC)” value (Candida parapsilosis [35]) of the same compound?
The value was 1.85.

What about the “fold change (FC)” value (Candida parapsilosis [36]) of the same compound?
Its value is 1.61.
